Measured values as given in PubChem BioAssay AID330 (DTP/NCI, 2004).
The list shows only some results of the screen, not a fair sample: it is rich in T/C values a quarter to a half above the control, in often repeated tests (any T/C) and in doses without a T/C. Further doses and runs are listed elsewhere. T/C: endpoint of the treated group in % of that of the vehicle group. Some doses have a count of surviving animals in place of a T/C: the source holds a T/C of zero for them, seemingly a mark for toxic or unscored doses. Some survivor counts are full or nearly so, which does not show that the dose was tolerated: the source hardly ever lists a survival T/C far under the control, and the zero likely stands for such cases as well. Survivors were counted at the toxicity check, usually on the fifth day, unless a day is given; later deaths do not show. Schedule codes are those of the source, taken here to give the interval after Q, in days (D) or hours (H), and the number of doses after X. Some entries were tested several times; the results are listed from low to high. Where survival is the endpoint, the PubChem record calls one and a half times the control and up active, and a quarter to a half above the control has no call in these data; cut-offs in other NCI protocols can differ. Some T/C values carry the count of animals alive at the toxicity check (mostly the fifth day); where none is given, no animal had died by that day. Additions like (4×) say how often a value occurs here.

Test system: P388 leukemia ip, CD2F1 mice, survival T/C
Test: NCI In Vivo Anticancer Drug Screen. Data for tumor model P388 Leukemia (intraperitoneal) in CD2F1 (CDF1) mice
Details: T/C endpoint: median survival time, vehicle: saline with Tween-80, higher T/C = longer survival
[1] = dose: 50.0 mg/kg/injection, schedule: Q01DX001 (ip)
[2] = dose: 50.0 mg/kg/injection, schedule: Q01DX009 (ip)
[3] = dose: 50.0 mg/kg/injection, schedule: Q04DX002 (ip)
[4] = dose: 50.0 mg/kg/injection, schedule: Q04DX003 (ip)
[5] = dose: 100.0 mg/kg/injection, schedule: Q01DX001 (ip)
[6] = dose: 100.0 mg/kg/injection, schedule: Q01DX009 (ip)
[7] = dose: 100.0 mg/kg/injection, schedule: Q04DX003 (ip)
[8] = dose: 200.0 mg/kg/injection, schedule: Q01DX001 (ip)
[9] = dose: 200.0 mg/kg/injection, schedule: Q01DX005 (ip)
[10] = dose: 200.0 mg/kg/injection, schedule: Q01DX009 (ip)
[11] = dose: 200.0 mg/kg/injection, schedule: Q04DX002 (ip)
[12] = dose: 200.0 mg/kg/injection, schedule: Q04DX003 (ip)
[13] = dose: 400.0 mg/kg/injection, schedule: Q01DX001 (ip)
[14] = dose: 400.0 mg/kg/injection, schedule: Q01DX005 (ip)
[15] = dose: 400.0 mg/kg/injection, schedule: Q01DX009 (ip)
[16] = dose: 400.0 mg/kg/injection, schedule: Q04DX002 (ip)
[17] = dose: 400.0 mg/kg/injection, schedule: Q04DX003 (ip)

## CC/C(=C(/CC)c1ccc(O)cc1)c1ccc(O)cc1
[1]
  T/C: 90, 91, 92 (2×), 92 [2 of 3 alive], 95 (2×), 96, 97 (4×), 98 (3×), 99, 100, 100 [5 of 6 alive], 101, 102, 103, 104, 105 (3×), 109 (2×), 110 (2×), 111 % of control
  survivor count: 3 of 3 and 6 of 6
dose: 50.0 mg/kg/injection, schedule: Q01DX005 (ip)
  T/C: 87, 90 [5 of 6 alive], 91, 93 (2×), 94, 97, 98 (2×), 99 (2×), 100 (4×), 101 (2×), 103, 104 (2×), 105 (2×), 106, 107 (2×), 108, 109 (2×), 110, 111, 115, 117 (2×), 121, 122, 129 % of control
[2]
  T/C: 91, 92, 95, 97, 98 (3×), 99 (3×), 101, 102 (2×), 105 (3×), 106, 107, 108 (2×), 111 (2×), 112, 113, 114, 116, 117, 119, 124, 128, 131 % of control
  survivor count: 3 of 3 and 6 of 6
[3]
  T/C: 87, 88, 92 (2×), 93, 94, 95 (3×), 99 (3×), 100 (7×), 101, 102 (2×), 103 (2×), 104, 105, 106 (3×), 107, 108, 112, 114, 118 % of control
  survivor count: 6 of 6
[4]
  T/C: 86, 89, 90, 91 (2×), 94 (2×), 95, 96 (2×), 97 (2×), 98, 99 (4×), 100 (6×), 101 (2×), 101 [5 of 6 alive], 102, 103, 103 [5 of 6 alive], 104, 105 (2×), 106, 109 % of control
  survivor count: 3 of 3 and 6 of 6
[5]
  T/C: 87, 87 [5 of 6 alive], 88, 91, 91 [4 of 6 alive], 92, 93, 94, 94 [5 of 6 alive], 95, 96 (2×), 97 (2×), 98 (2×), 99 (2×), 100 (3×), 101 (3×), 102, 104 (2×), 105, 106, 107, 109 % of control
  survivor count: 6 of 6
dose: 100.0 mg/kg/injection, schedule: Q01DX005 (ip)
  T/C: 88, 89, 90, 92, 93 (2×), 94, 95 [5 of 6 alive], 96, 97 (2×), 98 (2×), 100 (2×), 101 (3×), 101 [5 of 6 alive], 102 (3×), 104, 105, 108, 110 (2×), 111, 111 [2 of 3 alive], 112 (3×), 112 [2 of 3 alive], 113, 117, 124 % of control
[6]
  T/C: 93 (2×), 95 (3×), 96 (2×), 98, 100 (3×), 102 (3×), 103 (2×), 104 (2×), 105 [2 of 3 alive], 106, 107, 108 (4×), 110, 113, 119, 121, 122, 122 [5 of 6 alive], 123 % of control
  survivor count: 3 of 3 and 6 of 6
dose: 100.0 mg/kg/injection, schedule: Q04DX002 (ip)
  T/C: 87, 90, 91, 92 (3×), 93 (2×), 93 [5 of 6 alive], 94 (2×), 95, 98 (2×), 99 (2×), 100 (4×), 101, 102 (3×), 104 (3×), 106 (2×), 107, 109, 110, 112, 114, 116 % of control
[7]
  T/C: 86, 87 [5 of 6 alive], 88, 91, 92, 94, 95 (2×), 96 (2×), 97, 98 (2×), 99 (2×), 100 (3×), 100 [2 of 3 alive], 101 (4×), 102 (2×), 103 (2×), 104 (3×), 105 (2×), 110, 118, 122 % of control
  survivor count: 3 of 3 and 6 of 6
[8]
  T/C: 89 [5 of 6 alive], 90, 90 [5 of 6 alive], 91, 91 [5 of 6 alive] (2×), 92 (2×), 93 [2 of 3 alive], 93 [5 of 6 alive], 96 (2×), 97, 98, 99, 99 [2 of 3 alive], 100 (10×), 103, 105, 108, 115, 115 % of control [2 of 3 alive]
  survivor count: 6 of 6
[9]
  T/C: 86 [2 of 3 alive], 87, 89 (2×), 92 [5 of 6 alive], 93 (2×), 95 [4 of 6 alive], 96, 96 [2 of 3 alive], 97 [5 of 6 alive], 98, 98 [5 of 6 alive], 99, 99 [5 of 6 alive], 101 (3×), 103 [5 of 6 alive], 104, 105, 106 (2×), 107, 110 (2×), 111 (3×), 112, 112 [2 of 3 alive], 117, 118, 127 % of control
  survivor count: 3 of 6 and 2 of 3
[10]
  T/C: 87 [5 of 6 alive], 90 [2 of 3 alive], 91 [4 of 6 alive], 92, 93 (2×), 93 [5 of 6 alive], 97 [2 of 3 alive], 98, 99, 99 [2 of 3 alive], 100 (3×), 101 [4 of 6 alive], 101 [5 of 6 alive], 104, 105, 106 [2 of 3 alive], 107 [5 of 6 alive], 108 [5 of 6 alive], 109, 113, 113 [5 of 6 alive], 117 (2×), 117 [5 of 6 alive], 122, 140 % of control
  survivor count: 2 of 3 and 6 of 6
[11]
  T/C: 86, 89, 90 (2×), 93 (3×), 94, 94 [5 of 6 alive], 95 (3×), 95 [5 of 6 alive], 97, 97 [2 of 3 alive], 99, 99 [5 of 6 alive], 100 (4×), 100 [2 of 3 alive], 101, 104 (2×), 105 (2×), 107, 112, 114 [5 of 6 alive], 117, 120, 125 % of control
  survivor count: 1 of 3 and 3 of 3
[12]
  T/C: 86, 88, 88 [4 of 6 alive], 89, 90 (2×), 91, 93, 94, 94 [5 of 6 alive], 95, 96 (2×), 97, 98 (2×), 99 (2×), 100 (5×), 101, 102 (2×), 105, 107, 108 [2 of 3 alive], 109, 115, 128 % of control
  survivor count: 2 of 3, 5 of 6, 3 of 3, 6 of 6
[13]
  T/C: 92 [4 of 6 alive], 92 [5 of 6 alive], 95 [2 of 3 alive], 95 [5 of 6 alive], 96, 97 [5 of 6 alive], 98, 98 [2 of 3 alive], 98 [4 of 6 alive], 99, 100 [5 of 6 alive] (2×), 101, 102, 102 [4 of 6 alive], 109, 113 (2×), 115 % of control [2 of 3 alive]
  survivor count: 0 of 3, 0 of 6, 1 of 3, 2 of 6, 3 of 6, 4 of 6
[14]
  T/C: 94, 97, 97 [5 of 6 alive], 100, 104 [5 of 6 alive], 106 [5 of 6 alive], 107 [2 of 3 alive], 113 [5 of 6 alive], 117 % of control [2 of 3 alive]
  survivor count: 0 of 3, 0 of 6, 1 of 6, 1 of 3, 2 of 6, 3 of 6
[15]
  T/C: 89, 89 [2 of 3 alive], 98, 105 [5 of 6 alive], 107, 108 % of control [5 of 6 alive]
  survivor count: 0 of 3, 0 of 6, 1 of 6, 1 of 3, 2 of 6, 3 of 6, 2 of 3, 5 of 6
[16]
  T/C: 88 [2 of 3 alive], 90 [2 of 3 alive] (2×), 91 [5 of 6 alive], 93 [2 of 3 alive], 97 [2 of 3 alive] (2×), 99, 99 [5 of 6 alive], 100 (3×), 100 [2 of 3 alive], 100 [4 of 6 alive], 100 [5 of 6 alive] (2×), 102, 103, 105 [4 of 6 alive], 106 % of control [4 of 6 alive]
  survivor count: 0 of 3, 0 of 6, 1 of 6, 1 of 3, 2 of 6, 3 of 6, 2 of 3, 4 of 6
[17]
  T/C: 86 [2 of 3 alive], 87 [5 of 6 alive], 88, 90 [5 of 6 alive], 91 [4 of 6 alive], 94, 95, 96 [2 of 3 alive], 98, 100 (3×), 101 [5 of 6 alive] (2×), 106 [2 of 3 alive], 108, 119 % of control [2 of 3 alive]
  survivor count: 0 of 3, 1 of 6, 1 of 3, 2 of 6, 3 of 6, 2 of 3, 4 of 6, 3 of 3, 6 of 6
